# Test results reported in PubChem BioAssay AID2417 (National Center for Advancing Translational Sciences (NCATS), 2010).
# Screen size: about 140,000 compounds; about 4,300 (3.1%) were called active. Inconclusive results, whose numbers are uncertain, are shown with a selection of clear calls.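 Rule for the calls: active = readout at or below -70, meaning at least 70% loss of cells showing the perinucleolar compartment, a nuclear body marking cancer cells; inconclusive = readout between -30 and a set limit; inactive = the rest.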
# Experiment: High Content Assay for Compounds that inhibit the Assembly of the Perinucleolar Compartment;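 note: plate controls were DMSO wells for no effect and camptothecin positive control wells for full effect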
# Conditions: PC3M PTB-GFP, PNC prevalence imaging, 16 h; at 10 µM; active compounds read low
# In short: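 Read-out is percentage of cells bearing a perinucleolar compartment, from automated 20x imaging of fixed, Hoechst-stained PC3M PTB-GFP cells. Cells were seeded 4 h, then exposed 16 h to compound (23 nl of library stock) in duplicate plates.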
row,SMILES,"activity change (PNC), negative = inhibition"
1,C/C(Cl)=C/CSc1nn2c(=O)c3ccccc3nc2s1,inactive: -12.3%
2,O=C(Nc1ccncc1)c1cccc(F)c1,inactive: 43.1%
3,CN(C)S(=O)(=O)c1ccc(C(=O)N2CCCC2c2nc3ccccc3s2)cc1 (stereo not given),inconclusive: -55.7%
4,OCC[n+]1ccc(/C=C/c2c[nH]c3ccccc23)cc1,inconclusive: -49.1%
5,CSCSC1=C(C#N)C(c2ccccc2Cl)C(C(C)=O)=C(C)N1 (stereo not given),inconclusive: -40.4%
6,CC1(C)CC(=O)C(C=NCCN2CCN(C(=O)NC34CC5CC(CC(C5)C3)C4)CC2)=C(O)C1,inactive: -10.3%
7,COc1ccc(-n2cnnc2SCC(=O)Nc2cc(S(=O)(=O)N3CCCCC3)ccc2C)cc1,inactive: 114%
8,COc1cccc(NC(=O)CN2C(=O)COc3ccc(Cl)cc32)c1,inconclusive: -36.7%
9,Cc1cccc(CC(=O)Nc2cc(=O)n(C)c(=O)n2C)c1,inconclusive: -46.6%
10,CCOC(=O)Cc1csc(NC(=O)C2C3C=CC(C3)C2C(=O)O)n1 (stereo not given),active: -107%
11,COC(=O)C1C(=O)C2=C(CC1C)NC(=O)CC2c1ccccc1 (stereo not given),inconclusive: -36.1%
12,CCNC(=O)OCC(CC)NC(=O)OCC(C)C (stereo not given),inconclusive: -34%
13,CCOc1ncccc1C(=O)N(C)CC(=O)Nc1ccc(F)cc1,inconclusive: -41.3%
14,N#Cc1ccccc1CSc1ccccn1,inconclusive: -69.1%
15,COc1ccc(Cn2nnnc2C(c2cc3cccc(C)c3[nH]c2=O)N2CCOCC2)cc1 (stereo not given),inactive: -28.4%
16,Cc1c(N2C(=O)c3ccc4c5c(ccc(c35)C2=O)CC4)c(=O)n(-c2ccccc2)n1C,active: -92.4%
17,CN(C)c1ccc(/C=N/NC(=O)c2ccco2)cc1,inconclusive: -42.4%
18,O=C(COC(=O)CCC(=O)c1ccc(F)cc1)Nc1ccc(N2CCOCC2)cc1,inactive: -3.56%
19,COc1ccc2c(=O)cc(-c3ccccc3)n(C)c2c1,inconclusive: -55.3%
20,CN1CCN(c2ccccc2NC(=O)c2cc(Br)ccc2Cl)CC1,inconclusive: -33.4%
21,COc1ccc(Br)cc1/C(C)=N/NC1=NCCN1,inactive: -17%
22,CCCn1nnnc1SCC(=O)c1ccc2c(c1)OCCO2,inconclusive: -64.8%
23,O=C(CNC(=O)c1ccc(Cl)cc1)NCCCn1ccnc1,inconclusive: -40.1%

row,SMILES,"activity change (PNC), negative = inhibition"
1,CN1CCN(C2=C(Cl)C(=O)N(CCc3ccccc3)C2=O)CC1,inactive: 1.63%
2,CCOC(=O)c1nnn(-c2nonc2N)c1CN(CC)c1ccccc1,inactive: 37%
3,COCCNC(=O)COc1ncnc2ccc(Br)cc12,inconclusive: -37.1%
4,CCOC(CNC(=O)c1ccc(N2CCc3ccccc32)c([N+](=O)[O-])c1)OCC,inconclusive: -41.6%
5,Cc1c(CCO)c(=O)n(-c2ccccc2)n1S(=O)(=O)c1c(Cl)cc(Cl)cc1Cl,inconclusive: -58%
6,CCc1cccc(CC)c1NC(=O)COC(=O)c1cccc(S(=O)(=O)N2CCc3ccccc3C2)c1,active: -89.6%
7,CCCC12CN3CC(C)(CN(C1)C3c1ccc(OC)cc1)C2=O (stereo not given),inactive: 3.48%
8,N#Cc1ccccc1NC(=O)CSc1nccn1CCc1ccccc1,inconclusive: -38.1%
9,Cc1cc(N2CCN(C(=O)c3ccco3)CC2)nc(-c2ccccc2)n1,inconclusive: -48.8%
10,CC(C)(C)c1ccc(C(=O)c2c[nH]c(C(=O)NCCCN3CCOCC3)c2)cc1,inconclusive: -46.7%
11,COc1cc(NC(=O)C2=C(N3CCOCC3)/C(=C/c3ccc(Cl)cc3)CC2)cc(OC)c1OC,inconclusive: -42.3%
12,[O-][N+]1=c2ccc(Nc3ccccc3)cc2=NC12CCCCC2,inactive: 1.01%
13,CCOC(=O)c1cc(CC)sc1/N=C/C1C(=O)CC(C)(C)CC1=O,inconclusive: -40.1%
14,N#Cc1cccc(NC(=O)Cn2c3[n+](c4ccc(C(F)(F)F)cc42)CCCCC3)c1,inconclusive: -35.1%
15,CN(C)c1ccc(C=Nc2ccc(N(C)C)cc2)cc1,inactive: 40.6%
16,CCN(CC(=O)N1CCCCCC1)S(=O)(=O)c1ccc(Cl)cc1,inactive: -1.32%
17,O=C(CCCN1C(=O)c2ccccc2C1=O)N1CCN(c2ccccn2)CC1,inconclusive: -41.2%
18,O=C(Oc1cccc(/C=N/Nc2nc(Nc3ccccc3)nc(N3CCOCC3)n2)c1)c1ccco1,inconclusive: -77.7%
19,CCNc1nc(NC(C)C)nc(Oc2ccc(OCc3ccccc3)nn2)n1,inconclusive: -68.1%
20,Cc1ccc(NC(=O)c2ccc(S(=O)(=O)N3CCC(C)CC3)cc2)cc1,inconclusive: -32%
21,CCOC(=O)CC(=O)CSc1nc(N)c(C#N)c(-c2ccc(Cl)cc2)c1C#N,inactive: -12.6%
22,C/C(CC1CC2=C(CC1(C)C)C(C)(C)CCC2)=N\NC(N)=S (stereo not given),inactive: -13.5%
23,COc1cc(CCC(=O)Nc2ccc(C)c(S(=O)(=O)N(C)C)c2)cc(OC)c1OC,inactive: 23.3%

row,SMILES,"activity change (PNC), negative = inhibition"
1,O=C(CCCSc1nc2ccccc2[nH]1)NCc1ccco1,inconclusive: -56.6%
2,Cc1ccc(NC(=O)NC(=O)N(c2ccccc2)S(C)(=O)=O)cc1,inconclusive: -40.4%
3,Cc1ccc(C2CC2C(=O)NNC(=S)Nc2cccc(C)c2)cc1 (stereo not given),inconclusive: -79.1%
4,CCOC(=O)CNc1c(-c2ccc(OC)cc2)nc2ccc(Cl)cn12,inconclusive: -33.8%
5,Cc1noc(COc2ccccc2OCc2onc(C)c2Cl)c1Cl,active: -100%
6,COc1ccc(NC(=O)c2ccc(-n3nc(C)c[n+]3[O-])cc2)cc1,inconclusive: -49.2%
7,COC(=O)Nc1nc(-c2ccccc2)c(C(=O)c2ccccc2)s1,active: -98.1%
8,COc1cc(/C=C2\SC(c3ccc(C)cc3)=NC2=O)cc(OC)c1O,inconclusive: -61.2%
9,O=C(OC1CSc2nc3ccccc3n2C1)c1ccco1 (stereo not given),inconclusive: -39.7%
10,CC(Sc1nc2ccccc2s1)C(=O)NC1CCCc2ccccc21 (stereo not given),inactive: 20.8%
11,Cc1cc(NC(=O)CCSc2nc(-c3ccco3)cc(C(F)(F)F)n2)no1,inactive: 13.2%
12,Cc1cc(C(=O)CSc2nnc(N)s2)c(C)n1CCc1ccc(Cl)cc1,inactive: 16.3%
13,O=c1c2ccccc2nnn1CSc1nnc2sc3ccccc3n12,inconclusive: -52.8%
14,Cc1cc(C)cc(Cn2ncc(Cl)c(Cl)c2=O)c1,inconclusive: -38.2%
15,COc1ccc(-c2nc3ccc([N+](=O)[O-])cc3[nH]2)cc1,inconclusive: -52.8%
16,CCOC(=O)CSCC(NC(=O)OC(C)(C)C)C(=O)OCC (stereo not given),inconclusive: -40.3%
17,COc1ccc(-c2cc(-c3ccccc3O)[nH]n2)cc1OC,inconclusive: -67.6%
18,CCCC(=O)NC(NC(=S)Nc1ccc(N=Nc2ccccc2)cc1)C(Cl)(Cl)Cl (stereo not given),inconclusive: -33.4%
19,O=C(CN(c1ccc(Cl)cc1)S(=O)(=O)c1ccc(Cl)c([N+](=O)[O-])c1)NCCc1ccc(F)cc1,inactive: -1.43%
20,Cc1ccc(-n2nnc3c(=O)n(Cc4ccccc4C)cnc32)cc1,inactive: -21.8%
21,Fc1cccc(-c2cc3nc4c(c(N5CCC6(CC5)OCCO6)n3n2)CCCC4)c1,inconclusive: -43.4%
22,O=C(NCc1cccnc1)C1c2ccccc2C(=O)N1Cc1ccco1 (stereo not given),inconclusive: -37%
23,O=C(Cn1cnc2c(nnn2-c2ccccc2)c1=O)NCC1CCCO1 (stereo not given),inconclusive: -67.8%

# Structures listed so far that contain a cyano group, in the order listed:
row,SMILES,"activity change (PNC), negative = inhibition"
5,CSCSC1=C(C#N)C(c2ccccc2Cl)C(C(C)=O)=C(C)N1 (stereo not given),inconclusive: -40.4%
14,N#Cc1ccccc1CSc1ccccn1,inconclusive: -69.1%
8,N#Cc1ccccc1NC(=O)CSc1nccn1CCc1ccccc1,inconclusive: -38.1%
14,N#Cc1cccc(NC(=O)Cn2c3[n+](c4ccc(C(F)(F)F)cc42)CCCCC3)c1,inconclusive: -35.1%
21,CCOC(=O)CC(=O)CSc1nc(N)c(C#N)c(-c2ccc(Cl)cc2)c1C#N,inactive: -12.6%

# Remaining list, next part:

row,SMILES,"activity change (PNC), negative = inhibition"
1,O=C(CSCC(=O)Nc1nccs1)Nc1ccccc1,inconclusive: -41%
2,COc1ccccc1N1CCN(C(=O)c2sc3nc(-c4ccccc4)cn3c2C)CC1,active: -95.2%
3,Cc1ccc(C(=O)O/N=C2\CCSc3ccc(C)cc32)cc1,inconclusive: -47.2%
4,CC1CC(C)CN(CC(O)COCCOc2ccc(Br)cc2)C1 (stereo not given),active: -102%
5,CCCOc1cc(N(CC)CC)ccc1/C=C(/C#N)c1nc2ccc(C)cc2[nH]1,inconclusive: -50%
6,COC(=O)C1=C(Nc2ccc(OC)cc2)C=C(C)C(C(=O)OC)C1c1ccc(C)cc1 (stereo not given),inactive: -17.7%
7,Clc1ccc(-c2nnc3sc(-c4ccc(Br)o4)nn23)cc1,inconclusive: -33.7%
8,O=C(NC1CS(=O)(=O)CC1NCc1ccco1)c1ccccc1 (stereo not given),active: -96%
9,O=C(/C=C/c1cccs1)c1ccc(NC(=O)c2cccc(Br)c2)cc1,inactive: -10%
10,CCn1c(=O)c(C(=O)Nc2cnccn2)c(O)c2ccccc21,inconclusive: -37.3%
11,COCCSc1ccccc1C(=O)N1CCCC1,inactive: 11.9%
12,COC(=O)c1ccc(NC(=O)CSc2nnc(COc3ccccc3)n2C)cc1,inconclusive: -70.6%
13,COCCNC(=O)C(c1ccc(F)cc1)N(CCOC)C(=O)CCC(=O)Nc1nccs1 (stereo not given),active: -108%
14,Cc1noc2c1C(c1ccc(N(C)C)cc1)C1=C(CC(C)(C)CC1=O)N2 (stereo not given),inactive: 64%
15,CC(=O)C1=C(O)C(=O)N(c2ccc(C)cc2)C1c1ccccn1 (stereo not given),inconclusive: -34.6%
16,Cc1ccccc1C(=O)NCc1nnc(SCC(=O)N2CCN(c3ccccc3)CC2)n1C,inconclusive: -37.4%
17,Cc1[nH]c2c(C)cccc2c1CCNC(=O)c1ccc2c(c1[N+](=O)[O-])C(=O)c1ccccc1C2=O,inconclusive: -46%
18,O=C(c1ccc(Cl)c(F)c1F)N1CCCC1,inactive: -7.78%
19,O=C(NC(=S)Nn1cnnc1)c1cccc(Br)c1,inactive: -27.2%
20,O=C(CCC(=O)OCC(=O)c1ccccc1)Nc1cccc(Cl)c1,inconclusive: -39.1%
21,Cc1cc(C(=O)N/N=C/c2cc([N+](=O)[O-])cc(C)c2O)n[nH]1,active: -128%
